Results are given in words; binding and its absence hold for the method and conditions named. Some binding calls cover weakened binding; strength is not graded here.
Columns and labels:
[1] = target: T1, human macrophage migration-inhibitory factor (MIF) (human) (UniProt P14174); experiment: fluorescence spectroscopic titrations
T1 sequence (Alexa-Fluor 488 or Monolith NT-647 (MST-Red) label where so named, looked up): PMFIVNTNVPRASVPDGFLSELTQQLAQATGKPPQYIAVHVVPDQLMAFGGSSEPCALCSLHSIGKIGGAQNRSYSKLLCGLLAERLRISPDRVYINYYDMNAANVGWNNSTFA

Amino acid sequences for entries named in this document (tags omitted). Residues count along the entry.
UniProt P48061, residues 22-89: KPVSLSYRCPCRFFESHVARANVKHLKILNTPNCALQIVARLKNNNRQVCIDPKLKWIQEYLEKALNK

[2] = target: T1, human macrophage migration-inhibitory factor (MIF) (human); experiment: fluorescence spectroscopic binding assay
[3] = target: T1, human macrophage migration-inhibitory factor (MIF) (human); experiment: fluorescence spectroscopic titration of Fluos-ngm-LD3 with increasing MIF [panel B (spectra: D00078 Figure 30 A]
[4] = target: T1, human macrophage migration-inhibitory factor (MIF) (human); experiment: fluorescence spectroscopic titration of Alexa-MIF with increasing ngm-LD3 [panel D (spectra: D00078 Figure 30 C]
[5] = target: CXCL12 (human) (UniProt P48061); experiment: binding test for CXCL12; no number given

Measured: binding

B1: msR4M-LD3 ([ECL1(102-110)]-D-D-D-[ECL2(187-195)]) (designed binder)
peptide: WYFGNFLCKDDDDRFYPNDLW
modifications: C-terminal amide; N-terminus free, or Fluos where so labelled
not listed: [5]
binds: all other assays above

B2: msR4M-LR3 ([ECL1(102-110)]-R-R-R-[ECL2(187-195)]) (designed binder)
peptide: WYFGNFLCKRRRDRFYPNDLW
modifications: C-terminal amide; N-terminus free, or Fluos where so labelled
binds: [1] | [2] | [5]

B3: msR4M-LK3 ([ECL1(102-110)]-K-K-K-[ECL2(187-195)]) (designed binder)
peptide: WYFGNFLCKKKKDRFYPNDLW
modifications: C-terminal amide; N-terminus free, or Fluos where so labelled
binds: [1] | [2] | [5]
